# Data taken from PubChem BioAssay AID2685 (National Center for Advancing Translational Sciences (NCATS), 2010).
# The list shows a part of the results. Further columns of the screen follow, without active or inactive calls. Compounds called inactive in the main read-out are mostly missing here. The note in brackets gives the kind of curve behind each potency; many fits are weak.
# Assay: qHTS Assay for Lipid Storage Modulators in Drosophila S3 Cells;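 on cell number change: cells counted by Cell Tracker Red CMTPX staining in the red channel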
# Settings: BODIPY lipid droplet fluorescence, 18-24 h; for cell number change: measured here: cell count max response, cells fed with added oleic acid
# Method in brief: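 Drosophila S3 cells loaded with oleic acid (400 uM, as added) and compounds at several concentrations; lipid droplets imaged by 488-nm laser-scanning cytometry, 500–530 nm intensity and object ratio to cell channel. Percent activity normalized to 20 uM Triacsin C.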
# [1] = measured here: lipid fluorescence (Fed channel) AC50, cells fed with added oleic acid
# [2] = measured here: cell number channel AC50, cells fed with added oleic acid
Structure (SMILES),cell number change [%],AC50 [1],AC50 [2]
CC(C)c1nc2c(c(=O)c3ccccc3n2C)c(=O)n1-c1ccc(F)cc1,16.6,"16.4 µM [rising, single point]",
Cc1cc(C)c(OCCN2C(=O)NC(C)(C)C2=O)c(Cl)c1,-2.85,"29.1 µM [rising, single point]",
OCCC1CN(Cc2ccc3cc(Cl)ccc3n2)CCN1Cc1ccsc1 (centres undefined),33.4,"29.1 µM [rising, partial curve]",
Nc1ccc(OC(=O)Nc2ccc(O)cc2)cc1,7.99,"6.51 µM [falling, single point]",
CC1(C)CC(=O)C2=C(C1)Nc1cc3c(cc1C2c1ccc(F)cc1)OCO3 (centres undefined),-43.1,"23.1 µM [falling, single point]","23.1 µM [falling, single point]"
CC(C)CCn1c(Br)nc2c1c(=O)n(CC(N)=O)c(=O)n2C,16.1,"0.082 µM [falling, full curve, poor fit]",
O=C(/C=C/N1CCOCC1)c1coc2ccccc12,-24,"4.11 µM [falling, partial curve]",
COc1ccc2c(c1)CCc1c(C(=O)Nc3cc(C)n(Cc4ccc(Cl)cc4)n3)noc1-2,0.811,,
CC(=O)c1ccc(N2CCN(C(=O)C3CCCN(S(=O)(=O)c4cnc[nH]4)C3)CC2)cc1 (centres undefined),-20.5,"20.6 µM [falling, single point]",
CC(OC(=O)c1nccnc1N)C(=O)Nc1ccc(S(=O)(=O)N2CCCC2)cc1 (centres undefined),,,"1.84 µM [rising, single point]"
CCn1c(SCC(=O)Nc2ccc(F)cc2)nnc1C1CC1,21.2,,
Cc1ccc2nc(N3C(=O)C(O)=C(C(=O)c4ccco4)C3c3ccc(C)o3)sc2c1 (centres undefined),,"10.3 µM [falling, partial curve]","0.103 µM [rising, full curve, poor fit]"
CSCCC(NS(=O)(=O)c1ccccc1F)C(=O)NCC(c1ccc(F)cc1)N1CCOCC1 (centres undefined),150,,"20.6 µM [rising, single point]"
COc1cccc(/C=C2\N=C(c3c(-c4ccccc4)noc3C)OC2=O)c1OC,109,,"29.1 µM [rising, single point]"
CC(OC(=O)/C=C/c1ccc(Br)cc1)C(=O)N1CCOCC1 (centres undefined),-8.86,,
O=C(CSc1nc2ccccc2s1)N1CCCCC1,72.8,"6.51 µM [rising, single point]","14.6 µM [rising, partial curve]"
CSc1ncccc1C(=O)NC(C)C1CC2CCC1C2 (centres undefined),-13.2,,
COC(=O)c1ccccc1NC(=O)C1CC(=O)N(c2ccc(C)cc2)C1 (centres undefined),-1.52,"1.84 µM [rising, full curve]",
COc1ccc(C(=O)/C=C/Nc2c(C)n(C)n(-c3ccccc3)c2=O)c(OC)c1,-0.855,"6.51 µM [falling, single point]",
S=c1[nH]nc(CN2CCCCC2)n1-c1ccc(Cl)cc1,,,"4.11 µM [rising, partial curve]"

Structure (SMILES),cell number change [%],AC50 [1],AC50 [2]
CC(C(=O)O)n1ncc2ccccc2c1=O (centres undefined),1.22,,
CC1CCC(NC(=O)c2ccc(NC3=NC4CS(=O)(=O)CC4S3)cc2)CC1 (centres undefined),-43.5,"9.2 µM [falling, partial curve]","32.6 µM [falling, single point]"
COc1cc2[nH]c(=S)n(N(C(C)=O)C(C)=O)c(=O)c2cc1OC,-3.83,,
O=C(Nc1ccc(F)cc1)C(c1ccccc1)N1CCN(S(=O)(=O)c2ccc3ccccc3c2)CC1 (centres undefined),-2.4,"6.51 µM [falling, single point]",
C=CCn1c(=O)c(C(=O)NCc2ccc3c(c2)OCO3)c(O)c2cc(OC)c(OC)cc21,-23.6,"6.51 µM [falling, single point]","7.31 µM [falling, single point]"
CCOC(=O)/C(C#N)=C/C1=C(N2CCCC2)CC(C)(CC)OC1 (centres undefined),,"0.58 µM [falling, single point]",
Cc1cc(-n2c(C)cc(C(=O)COc3ccc(F)c(F)c3)c2C)no1,-32.4,"0.146 µM [rising, full curve, poor fit]","25.9 µM [falling, single point]"
S=C(Nc1cc(Cl)ccc1Cl)Nn1cnnc1,2.88,,
NC(=O)CC(NC(=O)Cc1cccc2ccccc12)c1ccc(NCc2ccc(F)c(F)c2)c([N+](=O)[O-])c1 (centres undefined),18.5,"14.6 µM [rising, partial curve]",
O=C(COC(=O)CSc1ccc2ccccc2c1Br)NC1CC1,-25.5,"0.651 µM [falling, full curve, poor fit]",
Cc1ccc(C)c(NC(=O)c2cc(-c3cc(C)ccc3O)n[nH]2)c1,58.9,"29.1 µM [rising, single point]","29.1 µM [rising, single point]"
Cc1cc(S(=O)(=O)N2CCOCC2)ccc1OCC(=O)Nc1ccc(Br)cc1F,2.14,"29.1 µM [rising, single point]",
O=C(NC(=S)NNC(=O)c1ccccc1O)c1cccs1,21.8,"0.13 µM [rising, full curve]",
O=C(Cn1cnc2c(nnn2-c2ccccc2)c1=O)N1CCC(Cc2ccccc2)CC1,77.3,,"29.1 µM [rising, single point]"
CCN(CC)C(=O)CSc1nnc(CCN)o1,-5.37,"29.1 µM [falling, single point]",
Cc1ccc(S(=O)(=O)N/N=C/c2ccccc2F)cc1[N+](=O)[O-],,"29.1 µM [falling, single point]",
CC(C)(C)NC(=O)COC(=O)c1ccc(Cl)c(S(N)(=O)=O)c1,-45.7,,
CN(CC1CCCO1)S(=O)(=O)c1ccc(C(=O)Nc2nnc(-c3ccccc3)o2)cc1 (centres undefined),-2.31,"29.1 µM [falling, single point]",
CCOC(=O)C1CCCN(S(=O)(=O)c2cc(OCC(N)=O)c(C)cc2Cl)C1 (centres undefined),-151,,"23.1 µM [falling, single point]"
CC(C)CC(=O)Nc1ccc(C(=O)COC(=O)Cc2n[nH]c(=O)c3ccccc23)cc1,-15.9,"0.82 µM [rising, full curve, poor fit]","0.651 µM [falling, single point]"

Structure (SMILES),cell number change [%],AC50 [1],AC50 [2]
CC(C)(C)c1ccc(C(=O)NCc2nnc(SCC(=O)NCC3CCCO3)o2)cc1 (centres undefined),-35.8,"20 µM [falling, partial curve]","17.8 µM [falling, single point]"
COc1ccc(CCC(=O)NCCOc2ccc(Cl)cc2)cc1,0.708,"0.116 µM [falling, full curve, poor fit]",
CCOC(=O)C1CCN(C(=O)c2cc(S(=O)(=O)N3CCCCC3)ccc2C)CC1,-24.6,"29.1 µM [falling, single point]",
Cc1ccc2c(CC(=O)Nc3ccc(F)c(S(=O)(=O)N4CCOCC4)c3)coc2c1,17.6,"0.731 µM [rising, full curve]",
COc1ccccc1CCNC(=O)Nc1cccc([N+](=O)[O-])c1,-42.3,,
O=C(NCCO)c1ccc2c3n(nc2c1)-c1ccccc1CO3,16.2,"0.651 µM [rising, full curve, poor fit]",
O=C(Nc1ccc2nc(-c3ccccn3)[nH]c2c1)C1CCCCC1,92.1,"2.31 µM [rising, full curve]","2.06 µM [rising, full curve]"
COc1ccc(OC)c(NC(=O)c2cccc(N3C(=O)C4C5CCC(C5)C4C3=O)c2)c1 (centres undefined),,"1.64 µM [falling, partial curve, poor fit]",
Cn1c(=O)c2c(nc(SCc3ccc(F)cc3)n2C)n(C)c1=O,21.4,,
CCCCN(S(=O)(=O)c1ccccc1)S(=O)(=O)c1ccccc1,6.05,"0.13 µM [rising, partial curve, poor fit]",
O=C(NC(Cc1ccccc1)C(=O)N1CCCC(C(F)(F)F)C1)c1ccccc1 (centres undefined),-94.3,"6.51 µM [rising, partial curve]","16.4 µM [falling, single point]"
CCN(CC)S(=O)(=O)c1ccc(C(=O)Nc2nnc(NC(=S)Nc3ccccc3)s2)cc1,-65.3,"25.9 µM [falling, partial curve, poor fit]","25.9 µM [falling, partial curve]"
Cc1ccc(N=Nc2c(C)[nH]n(-c3ccccc3)c2=O)c(C)c1,13.8,"1.46 µM [rising, full curve, poor fit]",
CCOC(=O)c1cccc(NC(=O)CSc2nc(N)cc(N)n2)c1,30.3,"29.1 µM [rising, partial curve, poor fit]","0.731 µM [rising, full curve, poor fit]"
COc1cc(/C=C/C(=O)c2ccc(Cl)s2)cc(OC)c1O,-14.5,"16.4 µM [falling, single point]",
O=C(NC(=S)Nc1cc(C(F)(F)F)ccc1Cl)c1ccccc1,-15.9,"5.17 µM [rising, partial curve]",
CCc1ccc(-c2nc3ccc(Br)cc3c(C(=O)O)c2C)s1,27,,
CCn1c(=O)cc(SCC(=O)Nc2ccc3c(c2)OCO3)c2ccccc21,,"0.13 µM [rising, full curve, poor fit]",
O=S(=O)(c1ccc(Cl)cc1)N1CCN(C2CCN(Cc3ccccc3)CC2)CC1,-60.8,"0.651 µM [rising, full curve, poor fit]","25.9 µM [falling, single point]"

# Part of the list above in another layout:
Structure (SMILES)	cell number change [%]	AC50 [1]	AC50 [2]
COc1cc(/C=C/C(=O)c2ccc(Cl)s2)cc(OC)c1O	-14.5	16.4 µM [falling, single point]	
O=C(NC(=S)Nc1cc(C(F)(F)F)ccc1Cl)c1ccccc1	-15.9	5.17 µM [rising, partial curve]	
CCc1ccc(-c2nc3ccc(Br)cc3c(C(=O)O)c2C)s1	27		
